Measurements reported in patent US20110059105A1.
Residue numbers refer to the chain shown, from its start. No constants are given. Whether binding was seen depends on the method and setting. Some binding calls cover weakened binding; strength is not graded here.

The chains behind the UniProt entries cited, without tags or fusion partners. Where a name states a change or a piece, a line headed by the entry shows the natural chain unless it says otherwise.
UniProt P35590: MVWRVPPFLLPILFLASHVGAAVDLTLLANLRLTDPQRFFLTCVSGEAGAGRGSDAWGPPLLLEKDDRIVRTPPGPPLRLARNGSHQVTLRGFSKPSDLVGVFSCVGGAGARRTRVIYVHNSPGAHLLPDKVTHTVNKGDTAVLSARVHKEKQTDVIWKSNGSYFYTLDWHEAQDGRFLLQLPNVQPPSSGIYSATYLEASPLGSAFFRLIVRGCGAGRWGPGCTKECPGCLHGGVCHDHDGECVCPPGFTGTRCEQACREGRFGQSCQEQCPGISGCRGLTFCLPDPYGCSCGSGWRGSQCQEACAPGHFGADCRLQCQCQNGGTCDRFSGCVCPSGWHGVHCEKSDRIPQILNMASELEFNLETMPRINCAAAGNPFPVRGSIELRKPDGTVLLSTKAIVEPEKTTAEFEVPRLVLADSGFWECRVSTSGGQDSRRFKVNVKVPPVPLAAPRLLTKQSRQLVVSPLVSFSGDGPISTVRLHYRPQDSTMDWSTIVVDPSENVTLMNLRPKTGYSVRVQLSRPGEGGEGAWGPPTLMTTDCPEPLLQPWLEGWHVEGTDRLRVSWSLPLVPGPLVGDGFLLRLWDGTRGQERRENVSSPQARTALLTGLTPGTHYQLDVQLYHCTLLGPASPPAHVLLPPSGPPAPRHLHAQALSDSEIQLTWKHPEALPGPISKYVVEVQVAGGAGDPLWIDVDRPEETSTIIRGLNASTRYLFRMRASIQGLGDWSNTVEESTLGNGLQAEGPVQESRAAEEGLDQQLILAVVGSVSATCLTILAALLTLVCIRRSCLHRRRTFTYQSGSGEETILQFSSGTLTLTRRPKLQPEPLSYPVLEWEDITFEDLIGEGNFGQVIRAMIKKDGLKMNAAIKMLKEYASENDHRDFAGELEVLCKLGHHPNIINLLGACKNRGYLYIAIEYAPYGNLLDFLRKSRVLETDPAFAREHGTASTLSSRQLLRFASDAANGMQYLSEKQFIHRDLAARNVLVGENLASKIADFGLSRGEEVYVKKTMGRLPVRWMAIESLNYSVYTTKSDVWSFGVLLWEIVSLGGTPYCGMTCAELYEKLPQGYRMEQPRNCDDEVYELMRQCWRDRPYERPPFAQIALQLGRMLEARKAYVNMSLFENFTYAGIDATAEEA

How the values were obtained:
[1] = target: V5-tagged full length human Tie1 expressed in COS1 cells (pcDNA3-Tie1-V5) (human) (UniProt P35590); experiment: IF, Tie1-V5 COS1 cells
[2] = target: endogenous human Tie1 (primary human endothelial cells HDMEC/HDMVEC, HUVEC, human tissue sections, SW480 cells) (human) (UniProt P35590); experiment: WB, HDMEC
[3] = target: V5-tagged full length human Tie1 expressed in COS1 cells (pcDNA3-Tie1-V5) (human) (UniProt P35590); experiment: IP, Tie1-V5 COS1 cells
[4] = target: V5-tagged full length human Tie1 expressed in COS1 cells (pcDNA3-Tie1-V5) (human) (UniProt P35590); experiment: WB, Tie1-V5 COS1 cells
[5] = target: endogenous human Tie1 (primary human endothelial cells HDMEC/HDMVEC, HUVEC, human tissue sections, SW480 cells) (human) (UniProt P35590); experiment: IP, HDMEC
[6] = target: endogenous human Tie1 (primary human endothelial cells HDMEC/HDMVEC, HUVEC, human tissue sections, SW480 cells) (human) (UniProt P35590); experiment: IF, HDMEC
[7] = target: endogenous human Tie1 (primary human endothelial cells HDMEC/HDMVEC, HUVEC, human tissue sections, SW480 cells) (human) (UniProt P35590); experiment: WB, IP and IF
[8] = target: V5-tagged full length human Tie1 expressed in COS1 cells (pcDNA3-Tie1-V5) (human) (UniProt P35590); experiment: WB, IP and IF
[9] = target: endogenous human Tie1 (primary human endothelial cells HDMEC/HDMVEC, HUVEC, human tissue sections, SW480 cells) (human) (UniProt P35590); experiment: immunohistochemistry, human skin and melanoma sections
[10] = target: endogenous human Tie1 (primary human endothelial cells HDMEC/HDMVEC, HUVEC, human tissue sections, SW480 cells) (human) (UniProt P35590); experiment: immunohistochemistry, human kidney and hypernephroma sections
[11] = target: endogenous human Tie1 (primary human endothelial cells HDMEC/HDMVEC, HUVEC, human tissue sections, SW480 cells) (human) (UniProt P35590); experiment: immunohistochemistry, human lung carcinoma sections
[12] = target: endogenous human Tie1 (primary human endothelial cells HDMEC/HDMVEC, HUVEC, human tissue sections, SW480 cells) (human) (UniProt P35590); experiment: immunohistochemistry, human breast and breast carcinoma sections
[13] = target: endogenous human Tie1 (primary human endothelial cells HDMEC/HDMVEC, HUVEC, human tissue sections, SW480 cells) (human) (UniProt P35590); experiment: immunohistochemistry, frozen human tissue sections, biotinylated IgG
[14] = target: endogenous human Tie1 (primary human endothelial cells HDMEC/HDMVEC, HUVEC, human tissue sections, SW480 cells) (human) (UniProt P35590); experiment: immunohistochemistry, human lung and lung carcinoma sections

Measured: binding

B1: A2 IgG1 (isolate s-A2) (antibody, V domains shown)
VH: EVQLLESGGGLVQPGGSLRLSCAASGFTFSRYTMMWVRQAPGKGLEWVSGIYPSGGVTLYADSVKGRFTISRDNSKNTLYLQMNSLRAEDTAVYYCARVNYYDSSGYGPIAPGLDYWGQGTLVTVSS
VL: DIQMTQSPGTLSLSPGERATLSCRASRSVIISYVAWYQQKPGQAPRLLIYGASTRATGIPDRFSGSGSGTDFTLTISRLEPEDFAVYFCQLYGRSPRIIFGQGTRLEIK
binds: [1] | [2] | [3] | [4] | [5] | [6] | [7] | [8]

B2: A10 IgG1 (isolate s-A10) (antibody, V domains shown)
VH: EVQLLESGGGLVQPGGSLRLSCAASGFTFSNYVMVWVRQAPGKGLEWVSGIYPSGGHTKYADSVKGRFTISRDNSKNTLYLQMNSLRAEDTAVYYCARVNYYDSSGYGPIAPGLDYWGQGTLV
VL: DIQMTQSPGTLSLSPGERATLFCRASQRVTSNSLAWYQQRPGQAPRLLIYDASTRATGIPDRFSGSGSGRDFTLTISRLEPEDFAVYYCQRYGSSVLYSFGQGTKLEIT
binds: [1] | [2] | [3] | [4] | [5] | [6] | [7] | [8]

B3: B2 IgG1 (isolate s-B2) (antibody, V domains shown)
VH: EVQLLESGGGLVQPGGSLRLSCAASGFTFSIYGMAWVRQAPGKGLEWVSVISPSGGQTFYADSVKGRFTISRDNSKNTLYLQMNSLRAEDTAVYYCARVYYYGMDVWGQGTTVTVSS
VL: DIQMTQSPATLSLSPGERATLSCRASQSVSSYLAWYQQKPGQAPRLLIYDASNRATGIPARFSGSGSETDFTLTISSLEPEDFAVYYCQQRSKWPRTFGQGTKLEIK
not listed: [5] | [14]
binds: all other assays above

B4: B9 IgG1 (isolate s-B9) (antibody, V domains shown)
VH: B1 VH with R31S, T33V, V57W, L59Y, A61T
VL: DIQMTQSPSSLSASVGDRVTITCRASQSVSSHLSWFQQRPGKAPNLLIYHASSLQSGVPSRFSGSGSGTDFTLTISSLQPEDFATYYCQQSYATSSITFGQGTRLDIK
binds: [1] | [2] | [3] | [4] | [5] | [6] | [7] | [8]

B5: C2 IgG1 (isolate s-C2) (antibody, V domains shown)
VH: B1 VH with T33K, M35K, G50V, V57G, L59G
VL: AQSVLTQPDSVSGSPGESITISCTGSSRDVGGYNYVSWYQQHPGKAPKLLLYDVTYRPSGISGRFSGSKSGDTASLTISGLRTEDEADYYCSSSIGTRTYVFGSGTKVTVLR
binds: [1] | [2] | [3] | [4] | [5] | [6] | [7] | [8]

B6: C7 IgG1 (isolate s-C7) (antibody, V domains shown)
VH: EVQLLESGGGLVQPGGSLRLSCAASGFTFSRYVMYWVRQAPGKGLEWVSVIYPSGGATYYADSVKGRFTISRDNSKNTLYLQMNSLRAEDTAVYYCARRGSSGAFDYWGQGTLVTVSS
VL: AQSVLTQPASVSGSPGQSITISCTGTSSDIGRYNYASWYQQRPGKSPKLLIYEVSDRPSGVSNRFSGSKSGNTASLIISGLQAEDEADYYCSSYSSTNSLQVVFGGGTKLSVLG
binds: [1] | [2] | [3] | [4] | [5] | [6] | [7] | [8]

B7: C10 IgG1 (isolate s-C10) (antibody, V domains shown)
VH: B1 VH with R31A, T33G, M35S, G50V, V57W, L59Y
VL: DIQMTQSPGTLSLSPGERATLSCRASQSVSSSYLAWYQQKPGQAPRLLIYGASSRATGIPDRFSGSGSGTDFTLTISRLEPEDFAVYYCQQYNNWPRTFGQGTKVEIK
binds: [1] | [2] | [3] | [4] | [5] | [6] | [7] | [8]

B8: D11 IgG1 (isolate s-D11) (antibody, V domains shown)
VH: EVQLLESGGGLVQPGGSLRLSCAASGFTFSGYAMWWVRQAPGKGLEWVSSISPSGGATAYADSVKGRFTISRDNSKNTLYLQMNSLRAEDTAVYYCARDAGSYYWGWFDPWGQGTLVTVSS
VL: B3 VL with V29I, A43P, N53S, A55V, S67F, E68G, Q89L, K93S
not listed: [5] | [11] | [13]
binds: all other assays above

B9: H4 IgG1 (isolate s-H4) (antibody, V domains shown)
VH: EVQLLESGGGLVQPGGSLRLSCAASGFTFSSYKMGWVRQAPGKGLEWVSSIYPSGGWTHYADSVKGRFTISRDNSKNTLYLQMNSLRAEDTAVYYCARVLLHYFDYWGQGTLV
VL: AQSVLTQPASVSGSPGQSITISCTGTSSDVGGYKYVSWYQQHPGKAPKLIISDVNNRPSGVSDRFSGSKSGNTASLTISGLQAEDDGDYYCSSYASSSYTSSTTWVFGGGTKLTVLG
binds: [1] | [2] | [3] | [4] | [5] | [6] | [7] | [8]
